The target in assay [1] is CEACAM1‐mNeonGreen (human) (UniProt P13688). The assay can be described thus: FRET or BRET; total internal reflection fluorescence microscopy on living cotransfected HEK293T cells; in cis; FRET yield by donor recovery after acceptor photobleaching; only cells in the highest decile of acceptor expression.
Assay [2] concerns the target human CEACAM1 (CEACAM1‐4S) on Jurkat cells (human) (UniProt P13688). The assay can be described thus: flow cytometry on cells; Jurkat cells (1 × 10^5) expressing TIM‐3 or CEACAM1‐4S incubated with Ig fusion proteins at 31.6, 10, 3.16, 1 and 0.316 μg/mL; detected with APC‐conjugated goat‐anti‐human IgG (Fc‐specific); gMFI normalized to secondary Ab only; only the binder purified. Background: Flow cytometry measures light scatter and fluorescence of single cells or particles in a stream.

By UniProt entry, the sequences of proteins in these tests, tags left out. Where a name states a change or a piece, a line headed by the entry shows the natural chain unless it says otherwise. Residues count along the entry.
UniProt Q8TDQ0: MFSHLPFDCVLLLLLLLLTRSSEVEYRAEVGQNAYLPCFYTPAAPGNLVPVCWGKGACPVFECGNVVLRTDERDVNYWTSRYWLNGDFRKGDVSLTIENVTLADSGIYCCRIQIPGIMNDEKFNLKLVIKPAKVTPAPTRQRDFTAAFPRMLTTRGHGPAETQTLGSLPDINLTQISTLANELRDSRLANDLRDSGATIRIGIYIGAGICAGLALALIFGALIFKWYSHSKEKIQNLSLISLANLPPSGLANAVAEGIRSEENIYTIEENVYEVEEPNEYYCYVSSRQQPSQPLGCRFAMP
human TIM‐3 on Jurkat cells: residues 22-301 of Q8TDQ0
UniProt Q7Z6A9, residues 31-289: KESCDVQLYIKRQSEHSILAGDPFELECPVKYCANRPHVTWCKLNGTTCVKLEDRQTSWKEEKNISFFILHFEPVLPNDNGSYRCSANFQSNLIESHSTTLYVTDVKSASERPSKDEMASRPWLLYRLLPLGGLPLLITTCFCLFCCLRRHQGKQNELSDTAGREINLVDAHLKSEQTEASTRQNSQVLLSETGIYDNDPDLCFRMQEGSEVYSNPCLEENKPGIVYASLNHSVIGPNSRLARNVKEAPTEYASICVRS
UniProt P09758, residues 27-274: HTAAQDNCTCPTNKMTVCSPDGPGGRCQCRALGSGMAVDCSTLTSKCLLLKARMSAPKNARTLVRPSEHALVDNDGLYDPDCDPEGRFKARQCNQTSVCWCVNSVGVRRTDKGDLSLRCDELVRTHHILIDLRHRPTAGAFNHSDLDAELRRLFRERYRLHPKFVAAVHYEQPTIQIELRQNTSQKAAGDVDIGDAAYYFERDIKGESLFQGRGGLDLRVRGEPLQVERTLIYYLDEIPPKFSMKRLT
UniProt P09793, residues 36-161: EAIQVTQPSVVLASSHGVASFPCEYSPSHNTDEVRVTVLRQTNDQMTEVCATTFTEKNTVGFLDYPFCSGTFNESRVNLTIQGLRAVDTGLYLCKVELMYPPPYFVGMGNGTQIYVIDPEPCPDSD

The target of assay [3] is recombinant human Gal‐9 (Gal‐9 E. coli G) (human) (UniProt O00182). As to the kind of experiment: ELISA; Gal‐9 or CEACAM1 immobilized overnight at 4°C on Maxisorp plates (coating 0.5 μg/mL); Ig fusion proteins added in PBS‐0.5% BSA, 1 h at room temperature; detected with HRP‐labeled goat‐anti‐human IgG (Fc‐specific), ABTS, OD 405 nm; both purified. A general note: ELISA stands for enzyme-linked immunosorbent assay.

Assay [4] has as its target recombinant human Gal‐9 expressed in E. coli (R&D systems) (human) (UniProt O00182). Described as above.
Assay [5] deals with recombinant human Gal‐9 expressed in HEK293T cells (R&D systems) (human) (UniProt O00182). Described as above.
The target of assay [6] is human TIM‐3 on Jurkat cells (human) (UniProt Q8TDQ0). The assay can be described thus: flow cytometry on cells; Jurkat cells (1 × 10^5) expressing TIM‐3 or CEACAM1‐4S incubated with Ig fusion proteins at 31.6, 10, 3.16, 1 and 0.316 μg/mL; detected with APC‐conjugated goat‐anti‐human IgG (Fc‐specific); gMFI normalized to secondary Ab only; only the binder purified.

These are yes or no findings as the source states them, for the method shown. For some of these results: Binding seen in cells or lysates may run through a third protein. Some entries that bind do so weakly or less than the wild type.

For the molecule “BTLA‐mRuby3 (from UniProt Q7Z6A9 31-289) (receptor)”, the binding entry in assay [1] is on record as “no binding”.
Consider “TIM‐3 Ig fusion protein (SinoBiological) (from UniProt Q8TDQ0 22-202) (Fc fusion)”, for which, in assay [2], the binding entry was “no binding (tested: 31.6 μg/mL)”.
In the case of “TROP2‐Ig (from UniProt P09758 27-274) (Fc fusion)”, the binding entry in assay [3] is given as “binds”; in assay [4] it was “binds”; in assay [5] it was “binds weakly”.
For “fusion protein representing the extracellular domain of CEACAM1 (CEACAM1‐Ig) (from UniProt P13688 35-428) (Fc fusion)”, the binding entry in assay [6] was “no binding (tested: 31.6 μg/mL)”.
On to “mouse‐CTLA‐4Ig (from UniProt P09793 36-161) (Fc fusion)”, for which the binding result was “binds” in assay [3], “binds” in assay [4] and “binds weakly” in assay [5].

B1: fusion protein representing the extracellular domain of CEACAM1 (CEACAM1‐Ig) (Fc fusion, human, UniProt P13688 35-428, looked up)
chain: QLTTESMPFNVAEGKEVLLLVHNLPQQLFGYSWYKGERVDGNRQIVGYAIGTQQATPGPANSGRETIYPNASLLIQNVTQNDTGFYTLQVIKSDLVNEEATGQFHVYPELPKPSISSNNSNPVEDKDAVAFTCEPETQDTTYLWWINNQSLPVSPRLQLSNGNRTLTLLSVTRNDTGPYECEIQNPVSANRSDPVTLNVTYGPDTPTISPSDTYYRPGANLSLSCYAASNPPAQYSWLINGTFQQSTQELFIPNITVNNSGSYTCHANNSVTGCNRTTVKTIIVTELSPVVAKPQIKASKTTVTGDKDSVNLTCSTNDTGISIRWFFKNQSLPSSERMKLSQGNTTLSINPVKREDAGTYWCEVFNPISKNQSDPIMLNVNYNALPQENGLSPG
notes: CEACAM1 (CD66a), extracellular domain; also called CEACAM1 Ig fusion protein; source: bought: SinoBiological
For B1, the binding result in assay [3] is listed as “binds”; in assay [4] it was “binds”; in assay [5], “binds weakly”; in assay [2] it was “binds”.

These data come from article PMC7496933, “TIM‐3 and CEACAM1 do not interact in cis and in trans” (European Journal of Immunology, 2020).
